Reference: patent US9775353B2, “Pesticidally active heterocyclic derivatives with sulphur containing substituents” (Syngenta Participations AG, priority 2014, dated 2017)
Some of these results come from one statement about several compounds together.

Tested on: Aedes aegypti (yellow fever mosquito)
Assay: Example B6: Activity against Aedes aegypti
Format: in vivo
Details: 200 ppm in ethanol, dry deposit; adult females; after 48 h

Row | SMILES | control of Aedes aegypti
1 | CCS(=O)(=O)c1cc(-c2ccc(F)cc2)cnc1-c1nc2cc(C(F)(F)F)ncc2n1C [Compound P13] | at least 80%
2 | CCS(=O)(=O)c1cc(-c2ccc(C(F)(F)F)cc2)cnc1-c1nc2cc(C(F)(F)F)ncc2n1C [Compound P2] | at least 80%
3 | CCS(=O)(=O)c1cc(-c2cc(F)cc(F)c2)cnc1-c1nc2cc(C(F)(F)F)ncc2n1C [Compound P7] | at least 80%
4 | CCS(=O)(=O)c1cc(-c2ccc(C(F)(F)F)cc2)ccc1-c1nc2cc(C(F)(F)F)ncc2n1C [Compound P27] | at least 80%
5 | CCS(=O)(=O)c1cc(-c2ccc(Cl)cc2)ccc1-c1nc2cc(C(F)(F)F)ncc2n1C [Compound P22] | at least 80%
6 | CCS(=O)(=O)c1cc(-c2ccc(Cl)cc2)cnc1-c1nc2cc(C(F)(F)F)ncc2n1C [Compound P1, 2-[5-(4-chlorophenyl)-3-ethylsulfonyl-2-pyridyl]-3-methyl-6-(trifluoromethyl)imidazo[4,5-c]pyridine] | at least 80%
